Data as given in PubChem BioAssay AID1241 (SRMLSC, 2008).
Among all 1,200 compounds or so, about 840 (70%) were called active. The rule behind the calls is not given here. The set was probably picked from earlier hits. Only a part is listed here, and it is no random draw. Potency and affinity values are given separately.

Test: NF-kB promoter reporter activators, neuronal cells, dose response, cell-based, SH-SY5Y, luciferase (AID 1241)
Details: at 30 µM (top of the series)

Question: With `O=C(c1cc(-c2ccccc2)on1)N1CCC2(CC1)OCCO2` as the compound, how does the fold induction over control read?
Answer: inactive: 2.55

Question: For `O=C(c1ccc(Br)cc1)C12CN3CN(CN(C3)C1)C2`, which fold induction over control is on record?
Answer: inactive: 1.09

Question: With `CNC(=O)Oc1ccc(-c2cn3cc(Cl)ccc3n2)cc1` as the compound, how does the fold induction over control read?
Answer: inactive: 16.2

Question: For `COc1ccc(-c2cc(=Nc3ccccc3)c3cc(C)ccc3o2)cc1`, which fold induction over control is on record?
Answer: inactive: 1.71

Question: With `N=C1c2ccccc2CN1CC(=O)c1ccccc1` as the compound, how does the fold induction over control read?
Answer: inactive: 7.91

Question: With `Cc1nc(Cl)sc1C(=O)Nc1ccc2ccccc2c1` as the compound, how does the fold induction over control read?
Answer: inactive: 6.97
